Values of other authors, collected in PMC10003010, “A Unique In Vitro Assay to Investigate ABCB4 Transport Function” (International Journal of Molecular Sciences, 2023).
Read-outs that look alike come from different tables or passages of the source.

What was measured:
ABCB4 [1] = settings: read-out: In Vitro Literature Data (IC50); cited from earlier work
ABCB4 [2] = settings: human primary hepatocyte assay; read-out: In Vitro Literature Data (IC50); cited from earlier work

For `CCCCc1oc2ccccc2c1C(=O)c1cc(I)c(OCCN(CC)CC)c(I)c1` [amiodarone], the IC50 (ABCB4 [1]) is listed as greater than 100 µM and the IC50 (ABCB4 [2]) is listed as greater than 300 µM.
